Measurements taken from PubChem BioAssay AID1794845 (National Center for Advancing Translational Sciences (NCATS), 2023).
Screen size: about 6,900 compounds; fewer than 10 were called active. Calls come from the whole dose curve; as a rule, active = well fitted curve in the direction sought with a large enough effect; inconclusive = small, poorly fitted or top-dose-only effect, or another doubt; inactive = no such curve, though single readings can be large or run the other way. This is one part of the list.

Chains of the proteins cited; added tags and fusions are not shown. Lines headed by an entry give the natural chain unless they say otherwise; changes in a name come on top.
UniProt C7C422: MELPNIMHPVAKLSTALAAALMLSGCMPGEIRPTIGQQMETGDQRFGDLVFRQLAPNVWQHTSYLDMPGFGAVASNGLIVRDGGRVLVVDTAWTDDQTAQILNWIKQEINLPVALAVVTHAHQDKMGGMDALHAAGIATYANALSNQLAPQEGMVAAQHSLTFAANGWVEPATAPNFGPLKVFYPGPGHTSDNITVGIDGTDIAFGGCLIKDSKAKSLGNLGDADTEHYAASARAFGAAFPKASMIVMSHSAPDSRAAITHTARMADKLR

target: Metallo-beta-lactamase type 2 (Klebsiella pneumoniae) (UniProt C7C422); test: qHTS to identify inhibitors of the New Delhi Metallo-beta-lactamase (NDM): primary screen against the NCATS Gemini Collection; conditions: NDM-1 enzyme, meropenem hydrolysis, absorbance 300 nm; at 38.4 µM (top of the series) unless noted; note: % of control where 0% means no effect
Procedure, shortened: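 NDM-1 at 2 nM final in 50 mM HEPES pH 7.0, 1 uM ZnSO4, 0.01% Tween20, preincubated >30 min with compound. Meropenem 50 uM final added; absorbance at 300 nm after 30 min.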

With `CC(=O)N1Cc2ccccc2NC(=O)C12CCNCC2` as the molecule, how does the activity % (negative = inhibition) read?
Its activity % (negative = inhibition) is inactive: 0.554%.

How did the activity % (negative = inhibition) turn out when `CCOCCn1nc(C)cc1C(=O)N1CC(C)(C)[C@@](C)(O)C1` was run?
The activity % (negative = inhibition) was inactive: -0.494%.

How did the activity % (negative = inhibition) turn out when `COc1cccc(-c2cccc(C(=O)N3CCN(C(=O)Cc4cccc(Cl)c4)CC3)c2)c1` was run?
The activity % (negative = inhibition) was inactive: 8.63%.

With `COc1ccc(C(=O)N[C@@H]2c3ccccc3C3(CCNCC3)[C@H]2OC)c(C)c1` as the molecule, how does the activity % (negative = inhibition) read?
Its activity % (negative = inhibition) is inactive: -0.104%.

`O=C1CCN(Cc2ccncc2)CCCC(CO)CCN1` (configuration not stated) was tested. Which activity % (negative = inhibition) did it give?
The activity % (negative = inhibition) was inactive: -7.81%.

For `CCOC(=O)C1CCCN(C(=O)C2CC(c3ccc(F)c(C)c3)CN(C(=O)NC(C)C)C2)C1` (configuration not stated), which activity % (negative = inhibition) is on record?
The activity % (negative = inhibition) was inactive: 27%.

With `Cc1noc(C)c1S(=O)(=O)N(C)C1CCOc2ccccc21` (configuration not stated) as the molecule, how does the activity % (negative = inhibition) read?
The activity % (negative = inhibition) was inactive: 2.54% [at 57.5 µM].

`COC[C@H]1C[C@@H](NCc2cccc3c2OCO3)[C@H](O)[C@@H]1O` was tested. Which activity % (negative = inhibition) did it give?
The activity % (negative = inhibition) was inactive: 1.23% [at 57.5 µM].

Which activity % (negative = inhibition) does the source give for `COc1cccc(NC(=O)CCC2CCN(C(=O)C(C)n3cncn3)CC2)c1` (configuration not stated) here?
Its activity % (negative = inhibition) is inactive: -2.79%.

With `O=C(NCc1nc(-c2cccc(F)c2)c(-c2ccccn2)[nH]1)C1CCOC1` (configuration not stated) as the molecule, how does the activity % (negative = inhibition) read?
Its activity % (negative = inhibition) is inactive: 18.2%.

How did the activity % (negative = inhibition) turn out when `COc1cccc(CN2CCCC(O)(CN3CCC(C)CC3)C2=O)c1` (configuration not stated) was run?
Its activity % (negative = inhibition) is inactive: 7.84%.

`COC(=O)N(C)Cc1cccc(N2CCN(C(=O)OC(C)(C)C)CC2)c1F` was tested. Which activity % (negative = inhibition) did it give?
The activity % (negative = inhibition) was inactive: -0.0329%.

For `COc1ccc(CCC(=O)N2CCCC(c3nc(-c4ccccc4)no3)CCNC(=O)CC2)cc1` (configuration not stated), which activity % (negative = inhibition) is on record?
The activity % (negative = inhibition) was inactive: -2.67%.

For `Cc1noc([C@H]2CCN(CC3CC3)C[C@H]2NC(=O)C2CCOCC2)n1`, which activity % (negative = inhibition) is on record?
The activity % (negative = inhibition) was inactive: -1.44%.

Which activity % (negative = inhibition) does the source give for `Cc1nc(N2CCC(NC(=O)c3sccc3C)CC2)cc(C(F)(F)F)n1` here?
The activity % (negative = inhibition) was inactive: 10.5%.

For `O=C(c1ccoc1)N1CCCC(n2cc(-c3nc(C4CC4)no3)nn2)C1` (configuration not stated), which activity % (negative = inhibition) is on record?
The activity % (negative = inhibition) was inactive: 1.24%.

With `COCCN1CCC(C(=O)N2CCn3nc(Cc4ccccc4)cc3C2)C1` (configuration not stated) as the molecule, how does the activity % (negative = inhibition) read?
Its activity % (negative = inhibition) is inactive: -1.03%.

`COC(=O)CNC(=O)c1cc(-c2cccnc2)c2nncn2n1` was tested. Which activity % (negative = inhibition) did it give?
The activity % (negative = inhibition) was inactive: 14.3%.

`Cc1ccc(CN2C(=O)OC(c3cccc(NC(=O)c4ccc(F)cc4)c3)C2C(=O)NC2CC2)cc1` (configuration not stated) was tested. Which activity % (negative = inhibition) did it give?
The activity % (negative = inhibition) was inactive: 81.1%.

How did the activity % (negative = inhibition) turn out when `NC(=O)[C@H]1C[C@@H](O)[C@H](O)[C@H]2[C@@H]1SC(=Nc1ccc(Cl)cc1)N2CC1CCCCC1` was run?
Its activity % (negative = inhibition) is inactive: 1.94%.

For `CCOCCOc1cccc(C(=O)N2C[C@@H](N(C)C)[C@H](C(C)C)C2)c1`, which activity % (negative = inhibition) is on record?
Its activity % (negative = inhibition) is inactive: 58.5%.

Which activity % (negative = inhibition) does the source give for `O=C(c1ccccc1F)N1CC2(C1)C(=O)Nc1ccccc12` here?
Its activity % (negative = inhibition) is inactive: -0.528% [at 57.5 µM].

`CC1(COCC2CC2)COc2ccc(C(=O)Nc3cccc([S+](C)(=O)[O-])c3)cc2N1` (configuration not stated) was tested. Which activity % (negative = inhibition) did it give?
Its activity % (negative = inhibition) is inactive: -0.683% [at 57.5 µM].

For `COc1ccc(O[C@H]2COCCN(C(=O)C3CCCC3)C2)cc1`, which activity % (negative = inhibition) is on record?
The activity % (negative = inhibition) was inactive: 19.2% [at 57.5 µM].

For `COCCN1C(=O)c2ccccc2C(C(=O)NCc2ccc(Cl)cc2)C12CCCC2` (configuration not stated), which activity % (negative = inhibition) is on record?
The activity % (negative = inhibition) was inactive: 3.33%.

For `Cc1nn2c(c1-c1ccccc1N1CCCC1)N(C(=O)C1CCOCC1)CCC2`, which activity % (negative = inhibition) is on record?
Its activity % (negative = inhibition) is inactive: 16.9% [at 57.5 µM].

For `O=C(C1CCOC1)N1CCC(C(=O)O)(n2ccc(-c3ccco3)n2)CC1` (configuration not stated), which activity % (negative = inhibition) is on record?
The activity % (negative = inhibition) was inactive: 45.8%.

Which activity % (negative = inhibition) does the source give for `CC(=O)NC(CO)C(=O)N1CCc2c(nc(-c3cccnc3)nc2N(C)C)C1` (configuration not stated) here?
The activity % (negative = inhibition) was inactive: 12.6%.

Which activity % (negative = inhibition) does the source give for `O=C(c1ccoc1)N1CCC(Nc2cccnc2)C1` (configuration not stated) here?
The activity % (negative = inhibition) was inactive: -0.493%.

Which activity % (negative = inhibition) does the source give for `CC(C)C(=O)N1CCC2(CCCCO2)CC1` here?
Its activity % (negative = inhibition) is inactive: -3.79%.

For `Cc1ccsc1-c1[nH]nc2ncc(-c3ccccc3O)nc12`, which activity % (negative = inhibition) is on record?
Its activity % (negative = inhibition) is inactive: 34.1% [at 57.5 µM].

Which activity % (negative = inhibition) does the source give for `CN(C(=O)c1ccc2oc(Cc3ccc(Cl)cc3)nc2c1)[C@H]1COC[C@@H]1O` here?
Its activity % (negative = inhibition) is inactive: 0.285%.

For `COC[C@H]1NC(=O)CC[C@H]1C(=O)NC1CCN(Cc2ccccc2)CC1`, which activity % (negative = inhibition) is on record?
Its activity % (negative = inhibition) is inactive: 2.52%.

Which activity % (negative = inhibition) does the source give for `O=C(O)C1CCc2nnc(C3CCN(C(=O)c4ccccc4)C3)n21` (configuration not stated) here?
The activity % (negative = inhibition) was inactive: 0.485%.

`CCn1ncc(CN2CCCCCCNC(=O)[C@@H]3CCC[C@@H]32)c1C` was tested. Which activity % (negative = inhibition) did it give?
Its activity % (negative = inhibition) is inactive: -6.9%.

How did the activity % (negative = inhibition) turn out when `O=C1Nc2ccccc2C12CN(Cc1ccc(C(F)(F)F)cc1)C2` was run?
Its activity % (negative = inhibition) is inactive: -2.37%.

Which activity % (negative = inhibition) does the source give for `N[C@H]1CN(c2cncc(C(=O)N3CCCCC3)n2)C[C@@H]1C1CC1` here?
The activity % (negative = inhibition) was inactive: 0.523%.

With `COC(=O)[C@H](CC1CCCCC1)NC(=O)[C@@H]1C[C@@H](NC(=O)Nc2cccc(F)c2)CCN1C(=O)CCC(=O)O` as the molecule, how does the activity % (negative = inhibition) read?
Its activity % (negative = inhibition) is inactive: -4.66%.

How did the activity % (negative = inhibition) turn out when `COCCNC(=O)[C@@H](C)C1CCc2c(C)cc(OC)c(C)c2[C@@H]1O` (some centres not stated) was run?
Its activity % (negative = inhibition) is inactive: 16.1% [at 57.5 µM].

With `COC1CCC12CCN(Cc1ccc(F)c(F)c1)CC2` (configuration not stated) as the molecule, how does the activity % (negative = inhibition) read?
Its activity % (negative = inhibition) is inactive: 2%.

With `N#Cc1ccc(CN2CCC(N3CCOC3=O)CC2)cc1` as the molecule, how does the activity % (negative = inhibition) read?
Its activity % (negative = inhibition) is inactive: 22.7% [at 57.5 µM].

`Cc1ccc(-c2nc(CNS(=O)(=O)C3CC3)[nH]c2-c2ccccn2)cc1` was tested. Which activity % (negative = inhibition) did it give?
The activity % (negative = inhibition) was inactive: 88.7%.
